From patent publication US20210221894A1
Results are given in words; binding and its absence hold for the method and conditions named. Some entries that bind do so weakly or less than the wild type.

Amino acid sequences for entries named in this document (tags omitted). A change or cut given only in a name is not applied to a line headed by its entry.
UniProt Q9NYJ7: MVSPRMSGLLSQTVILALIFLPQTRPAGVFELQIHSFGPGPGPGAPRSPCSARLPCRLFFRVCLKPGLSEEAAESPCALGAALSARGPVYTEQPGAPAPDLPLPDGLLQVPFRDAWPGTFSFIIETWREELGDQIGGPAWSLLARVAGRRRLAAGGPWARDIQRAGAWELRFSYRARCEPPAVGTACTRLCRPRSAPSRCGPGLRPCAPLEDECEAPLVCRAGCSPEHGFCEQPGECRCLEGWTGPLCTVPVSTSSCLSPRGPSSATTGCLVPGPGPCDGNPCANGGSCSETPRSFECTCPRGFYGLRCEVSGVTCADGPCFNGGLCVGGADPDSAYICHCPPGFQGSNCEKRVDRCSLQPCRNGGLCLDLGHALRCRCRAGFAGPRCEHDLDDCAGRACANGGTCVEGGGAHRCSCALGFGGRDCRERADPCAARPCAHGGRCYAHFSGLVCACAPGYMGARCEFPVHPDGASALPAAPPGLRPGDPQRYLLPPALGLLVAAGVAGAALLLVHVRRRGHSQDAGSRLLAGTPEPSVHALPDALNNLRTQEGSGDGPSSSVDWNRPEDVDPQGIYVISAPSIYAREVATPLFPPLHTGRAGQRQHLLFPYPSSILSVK

Experiments:
Test in all cases: SPR, 37 C
[1] = target: recombinant His-tagged EGF2-6 domains of human DLL3 (human) (UniProt Q9NYJ7)
[2] = target: recombinant His-tagged EGF3-6 domains of human DLL3 (human) (UniProt Q9NYJ7)
[3] = target: recombinant His-tagged EGF4-6 domains of human DLL3 (human) (UniProt Q9NYJ7)

binding [1]: binds
binding [2]: binds
binding [3]: binds
B1: murine anti-DLL3 antibody clone 5E7 (antibody, V domains shown)
VH: EVQLQQSGAELVRPGASVKLSCTASGFNIKDDYIHWVKQWPEQGLEWIGWIDSENGDTEYASKFQGKATMTADTSSNTAYLQLSGLTSEDTAVYYCTTSSYYSYDLFVYWGQGTLVTVSA
VL: DVLMTQTPLTLSVPIGQPASISCKSSQSLLHSNGKTYLNWLLQRPGQSPKLLIYLVSKLESGVPDRFSGSGSGTDFTLKISRVEAEDLGVYYCLQTTHLYTFGGGTKLEIK
